Measurements published in patent US20090111753A1, “Nogo-A Polypeptide Fragments, Variant Nogo Receptor-1 Polypeptides, and Uses Thereof” (Yale University, priority 2004, published 2009).

B1: 108, 131: human NgR1 mutant, listed residues mutated to alanine (protein)
chain: CPGACVCYNEPKVTTSCPQQGLQAVPVGIPAASQRIFLHGNRISHVPAASFRACRNLTILWLHSNVLARIDAAAFTGLALLAQLDLSDNAQLRSVDPATFHGLGALHTLHLDRCGLQELGPGLFRGLAALQYLYLQDNALQALPDDTFRDLGNLTHLFLHGNRISSVPERAFRGLHSLDRLLLHQNRVAHVHPHAFRDLGRLMTLYLFANNLSALPTEALAPLRALQYLRLNDNPWVCDCRARPLWAWLQKFRGSSSEVPCSLPQRLAGRDLKRLAANDLQGCAVATGPYHPIWTGRATDEEPLGLPKCCQPDAADKASVLEPGRPASAGNALKGRVPPGDSPPGNGSGPRHINDSPFGTLPGSAEPPLTAVRPEGSEPPGFPTSGPRRRPGCSRKNRTRSHCRLGQAGSGGGGTGDSEGSGALPSLTCSLTPLGLALVLWTVLGPC
B2: 78, 81: human NgR1 mutant, listed residues mutated to alanine (protein)
chain: CPGACVCYNEPKVTTSCPQQGLQAVPVGIPAASQRIFLHGNRISHVPAASFAACANLTILWLHSNVLARIDAAAFTGLALLEQLDLSDNAQLRSVDPATFHGLGRLHTLHLDRCGLQELGPGLFRGLAALQYLYLQDNALQALPDDTFRDLGNLTHLFLHGNRISSVPERAFRGLHSLDRLLLHQNRVAHVHPHAFRDLGRLMTLYLFANNLSALPTEALAPLRALQYLRLNDNPWVCDCRARPLWAWLQKFRGSSSEVPCSLPQRLAGRDLKRLAANDLQGCAVATGPYHPIWTGRATDEEPLGLPKCCQPDAADKASVLEPGRPASAGNALKGRVPPGDSPPGNGSGPRHINDSPFGTLPGSAEPPLTAVRPEGSEPPGFPTSGPRRRPGCSRKNRTRSHCRLGQAGSGGGGTGDSEGSGALPSLTCSLTPLGLALVLWTVLGPC
B3: 87, 89: human NgR1 mutant, listed residues mutated to alanine (protein)
chain: CPGACVCYNEPKVTTSCPQQGLQAVPVGIPAASQRIFLHGNRISHVPAASFRACRNLTILALASNVLARIDAAAFTGLALLEQLDLSDNAQLRSVDPATFHGLGRLHTLHLDRCGLQELGPGLFRGLAALQYLYLQDNALQALPDDTFRDLGNLTHLFLHGNRISSVPERAFRGLHSLDRLLLHQNRVAHVHPHAFRDLGRLMTLYLFANNLSALPTEALAPLRALQYLRLNDNPWVCDCRARPLWAWLQKFRGSSSEVPCSLPQRLAGRDLKRLAANDLQGCAVATGPYHPIWTGRATDEEPLGLPKCCQPDAADKASVLEPGRPASAGNALKGRVPPGDSPPGNGSGPRHINDSPFGTLPGSAEPPLTAVRPEGSEPPGFPTSGPRRRPGCSRKNRTRSHCRLGQAGSGGGGTGDSEGSGALPSLTCSLTPLGLALVLWTVLGPC
B4: 95, 97: human NgR1 mutant, listed residues mutated to alanine (protein)
chain: CPGACVCYNEPKVTTSCPQQGLQAVPVGIPAASQRIFLHGNRISHVPAASFRACRNLTILWLHSNVLAAIAAAAFTGLALLEQLDLSDNAQLRSVDPATFHGLGRLHTLHLDRCGLQELGPGLFRGLAALQYLYLQDNALQALPDDTFRDLGNLTHLFLHGNRISSVPERAFRGLHSLDRLLLHQNRVAHVHPHAFRDLGRLMTLYLFANNLSALPTEALAPLRALQYLRLNDNPWVCDCRARPLWAWLQKFRGSSSEVPCSLPQRLAGRDLKRLAANDLQGCAVATGPYHPIWTGRATDEEPLGLPKCCQPDAADKASVLEPGRPASAGNALKGRVPPGDSPPGNGSGPRHINDSPFGTLPGSAEPPLTAVRPEGSEPPGFPTSGPRRRPGCSRKNRTRSHCRLGQAGSGGGGTGDSEGSGALPSLTCSLTPLGLALVLWTVLGPC
B5: 117, 119, 120: human NgR1 mutant, listed residues mutated to alanine (protein)
chain: CPGACVCYNEPKVTTSCPQQGLQAVPVGIPAASQRIFLHGNRISHVPAASFRACRNLTILWLHSNVLARIDAAAFTGLALLEQLDLSDNAALAAVDPATFHGLGRLHTLHLDRCGLQELGPGLFRGLAALQYLYLQDNALQALPDDTFRDLGNLTHLFLHGNRISSVPERAFRGLHSLDRLLLHQNRVAHVHPHAFRDLGRLMTLYLFANNLSALPTEALAPLRALQYLRLNDNPWVCDCRARPLWAWLQKFRGSSSEVPCSLPQRLAGRDLKRLAANDLQGCAVATGPYHPIWTGRATDEEPLGLPKCCQPDAADKASVLEPGRPASAGNALKGRVPPGDSPPGNGSGPRHINDSPFGTLPGSAEPPLTAVRPEGSEPPGFPTSGPRRRPGCSRKNRTRSHCRLGQAGSGGGGTGDSEGSGALPSLTCSLTPLGLALVLWTVLGPC
B6: 36, 38, 61: human NgR1 mutant, listed residues mutated to alanine (protein)
chain: CPGACVCYNAPAVTTSCPQQGLQAVPVGIPAASQAIFLHGNRISHVPAASFRACRNLTILWLHSNVLARIDAAAFTGLALLEQLDLSDNAQLRSVDPATFHGLGRLHTLHLDRCGLQELGPGLFRGLAALQYLYLQDNALQALPDDTFRDLGNLTHLFLHGNRISSVPERAFRGLHSLDRLLLHQNRVAHVHPHAFRDLGRLMTLYLFANNLSALPTEALAPLRALQYLRLNDNPWVCDCRARPLWAWLQKFRGSSSEVPCSLPQRLAGRDLKRLAANDLQGCAVATGPYHPIWTGRATDEEPLGLPKCCQPDAADKASVLEPGRPASAGNALKGRVPPGDSPPGNGSGPRHINDSPFGTLPGSAEPPLTAVRPEGSEPPGFPTSGPRRRPGCSRKNRTRSHCRLGQAGSGGGGTGDSEGSGALPSLTCSLTPLGLALVLWTVLGPC
B7: 114, 117, 139: human NgR1 mutant, listed residues mutated to alanine (protein)
chain: CPGACVCYNEPKVTTSCPQQGLQAVPVGIPAASQRIFLHGNRISHVPAASFRACRNLTILWLHSNVLARIDAAAFTGLALLEQLDLSANAALRSVDPATFHGLGRLHTLHLDACGLQELGPGLFRGLAALQYLYLQDNALQALPDDTFRDLGNLTHLFLHGNRISSVPERAFRGLHSLDRLLLHQNRVAHVHPHAFRDLGRLMTLYLFANNLSALPTEALAPLRALQYLRLNDNPWVCDCRARPLWAWLQKFRGSSSEVPCSLPQRLAGRDLKRLAANDLQGCAVATGPYHPIWTGRATDEEPLGLPKCCQPDAADKASVLEPGRPASAGNALKGRVPPGDSPPGNGSGPRHINDSPFGTLPGSAEPPLTAVRPEGSEPPGFPTSGPRRRPGCSRKNRTRSHCRLGQAGSGGGGTGDSEGSGALPSLTCSLTPLGLALVLWTVLGPC
B8: 256, 259: human NgR1 mutant, listed residues mutated to alanine (protein)
chain: CPGACVCYNEPKVTTSCPQQGLQAVPVGIPAASQRIFLHGNRISHVPAASFRACRNLTILWLHSNVLARIDAAAFTGLALLEQLDLSDNAQLRSVDPATFHGLGRLHTLHLDRCGLQELGPGLFRGLAALQYLYLQDNALQALPDDTFRDLGNLTHLFLHGNRISSVPERAFRGLHSLDRLLLHQNRVAHVHPHAFRDLGRLMTLYLFANNLSALPTEALAPLRALQYLALNANPWVCDCRARPLWAWLQKFRGSSSEVPCSLPQRLAGRDLKRLAANDLQGCAVATGPYHPIWTGRATDEEPLGLPKCCQPDAADKASVLEPGRPASAGNALKGRVPPGDSPPGNGSGPRHINDSPFGTLPGSAEPPLTAVRPEGSEPPGFPTSGPRRRPGCSRKNRTRSHCRLGQAGSGGGGTGDSEGSGALPSLTCSLTPLGLALVLWTVLGPC
B9: 89, 90: human NgR1 mutant, listed residues mutated to alanine (protein)
chain: CPGACVCYNEPKVTTSCPQQGLQAVPVGIPAASQRIFLHGNRISHVPAASFRACRNLTILWLAANVLARIDAAAFTGLALLEQLDLSDNAQLRSVDPATFHGLGRLHTLHLDRCGLQELGPGLFRGLAALQYLYLQDNALQALPDDTFRDLGNLTHLFLHGNRISSVPERAFRGLHSLDRLLLHQNRVAHVHPHAFRDLGRLMTLYLFANNLSALPTEALAPLRALQYLRLNDNPWVCDCRARPLWAWLQKFRGSSSEVPCSLPQRLAGRDLKRLAANDLQGCAVATGPYHPIWTGRATDEEPLGLPKCCQPDAADKASVLEPGRPASAGNALKGRVPPGDSPPGNGSGPRHINDSPFGTLPGSAEPPLTAVRPEGSEPPGFPTSGPRRRPGCSRKNRTRSHCRLGQAGSGGGGTGDSEGSGALPSLTCSLTPLGLALVLWTVLGPC
B10: 95, 97, 122: human NgR1 mutant, listed residues mutated to alanine (protein)
chain: CPGACVCYNEPKVTTSCPQQGLQAVPVGIPAASQRIFLHGNRISHVPAASFRACRNLTILWLHSNVLAAIAAAAFTGLALLEQLDLSDNAQLRSVAPATFHGLGRLHTLHLDRCGLQELGPGLFRGLAALQYLYLQDNALQALPDDTFRDLGNLTHLFLHGNRISSVPERAFRGLHSLDRLLLHQNRVAHVHPHAFRDLGRLMTLYLFANNLSALPTEALAPLRALQYLRLNDNPWVCDCRARPLWAWLQKFRGSSSEVPCSLPQRLAGRDLKRLAANDLQGCAVATGPYHPIWTGRATDEEPLGLPKCCQPDAADKASVLEPGRPASAGNALKGRVPPGDSPPGNGSGPRHINDSPFGTLPGSAEPPLTAVRPEGSEPPGFPTSGPRRRPGCSRKNRTRSHCRLGQAGSGGGGTGDSEGSGALPSLTCSLTPLGLALVLWTVLGPC
B11: 216, 218, 220: human NgR1 mutant, listed residues mutated to alanine (protein)
chain: CPGACVCYNEPKVTTSCPQQGLQAVPVGIPAASQRIFLHGNRISHVPAASFRACRNLTILWLHSNVLARIDAAAFTGLALLEQLDLSDNAQLRSVDPATFHGLGRLHTLHLDRCGLQELGPGLFRGLAALQYLYLQDNALQALPDDTFRDLGNLTHLFLHGNRISSVPERAFRGLHSLDRLLLHQNRVAAVAPAAFRDLGRLMTLYLFANNLSALPTEALAPLRALQYLRLNDNPWVCDCRARPLWAWLQKFRGSSSEVPCSLPQRLAGRDLKRLAANDLQGCAVATGPYHPIWTGRATDEEPLGLPKCCQPDAADKASVLEPGRPASAGNALKGRVPPGDSPPGNGSGPRHINDSPFGTLPGSAEPPLTAVRPEGSEPPGFPTSGPRRRPGCSRKNRTRSHCRLGQAGSGGGGTGDSEGSGALPSLTCSLTPLGLALVLWTVLGPC

Test: SDS-PAGE and blot of NgR mutants with anti-NgR antibodies
Design: key: Mutants with expression level similar to WT NgR were labeled as “y”
Conditions: whole cell lysate of COS-7 cells expressing NgR mutants

| Molecule | NgR band Western |
| --- | --- |
| B1 | y |
| B2 | y |
| B3 | y |
| B4 | y |
| B5 | y |
| B6 | y |
| B7 | y |
| B8 | y |
| B9 | y |
| B10 | y |
| B11 | y |
